From PMC7819943, “Rice protein-binding microarrays: a tool to detect cis-acting elements near promoter regions in rice” come the findings set out here.

Chains of the proteins cited; added tags and fusions are not shown.
UniProt Q0JBA9, entry or part of it: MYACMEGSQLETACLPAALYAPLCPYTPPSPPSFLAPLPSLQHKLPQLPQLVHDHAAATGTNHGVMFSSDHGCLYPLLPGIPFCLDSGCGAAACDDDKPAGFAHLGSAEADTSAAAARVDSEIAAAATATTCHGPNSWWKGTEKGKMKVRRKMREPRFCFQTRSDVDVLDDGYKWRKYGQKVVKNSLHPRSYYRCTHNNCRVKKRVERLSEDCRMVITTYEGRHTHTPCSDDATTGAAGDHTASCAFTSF

The other results are listed elsewhere or left out.

The target in this experiment is OsWRKY34 (Oryza sativa, UniProt Q0JBA9 1-250). The experiment in a line: protein-binding microarray (RPBM); PBS, 2% BSA, 51.3 ng/ul salmon testes DNA, 50 uM zinc acetate, 200 nM TF, 25 C, 1 h; high values mean tight binding. To be noted: protein: recombinant; tags: N-terminal polyhistidine and DsRed monomer fusion (pET32a); label: CyDye5-dUTP incorporated in the synthesized complementary strand; 3' TTTTT single-stranded linker to array surface; dsDNA, one strand shown. A digest of the protocol: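 The binding signal is fluorescence intensity per array feature (arbitrary units). Readings came from an Axon 4000B scanner after a washed, 2% BSA-blocked, double-stranded custom Agilent array had been incubated for 1 h at 25 °C with 200 nM protein and 50 µM zinc acetate. The protein was a Ni–NTA-purified transcription factor fused N-terminally to polyhistidine and DsRed, expressed in E. coli BL21-CodonPlus.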
Regarding “TCCATCATGTGCATATACGAGGTTCTTATCGTGATCTACCCGGAGTCACCTAGTGCAG”, the binding signal was 8510 fluorescence intensity (a.u.).
As for “CGTTCCGCCTCGCCGCCTCGGGGCTCGGCCTCGTCCTCGTCGGAGTCACCTAGTGCAG”, the figure is 9310 fluorescence intensity (a.u.); as for “TCCCCAGTGGAATCGCACAGTTTTTCTATTTTTGGGTCTTCGGAGTCACCTAGTGCAG”, 9350 fluorescence intensity (a.u.); as for “CATTTTCGTGGGCTTTGATTATTATTCGTCGAAACTTCCCCGGAGTCACCTAGTGCAG”, 11800 fluorescence intensity (a.u.).
As to “GCGCGCCGCGCTCACGGGTGGGTCAAGGCAAGGGGAAGGGCGGAGTCACCTAGTGCAG”, the binding signal was 9400 fluorescence intensity (a.u.).
On to “CACCACCCTAGCCTCGCAGCAACCATCTACGCATCTCGCTCGGAGTCACCTAGTGCAG”, for which the binding signal is 8060 fluorescence intensity (a.u.).
In the case of “TTCGAGCACATCTACTTCGCGCTCCCAAACTCCGTGGTGTCGGAGTCACCTAGTGCAG”, the binding signal is 8080 fluorescence intensity (a.u.).
Regarding “CCGTTGTTTAACCCGTGATTTGAATCTCACCCTACCACGACGGAGTCACCTAGTGCAG”, the binding signal is 9640 fluorescence intensity (a.u.).
As for “TCGTTCAACGCTTGCTTTTGCTTACTAGGCCGCTATTGCACGGAGTCACCTAGTGCAG”, the figure is 8570 fluorescence intensity (a.u.).
For “CATAATTCACAATATCTTTGACCACATAGGACATGTTACCCGGAGTCACCTAGTGCAG”, the binding signal is 8170 fluorescence intensity (a.u.).
As for “CCCGAAAACCCACTTTTATCACTTCACCTCTCGTAGTTACCGGAGTCACCTAGTGCAG”, the figure is 9620 fluorescence intensity (a.u.); as for “TTTTATTCCCTAATCTCACTGTTTACAGCGACGCAACTCCCGGAGTCACCTAGTGCAG”, 8450 fluorescence intensity (a.u.); as for “AAACATCCGGGCTCCATCTCTAAGGAGCACTTGCACAAACCGGAGTCACCTAGTGCAG”, 9270 fluorescence intensity (a.u.).
On to “CATGTTTTTCTTATTCCTACGTTTTTTCAATCATACGATTCGGAGTCACCTAGTGCAG”, for which the binding signal was 8590 fluorescence intensity (a.u.).
As for “CTAGTTCTTGCTCTTTTCTCGACGTCATCCGATGGCCATGCGGAGTCACCTAGTGCAG”, the figure is 11600 fluorescence intensity (a.u.); as for “GTTCCAGTAATCCATGCCAAGTCCATATATTGTTTGTCTTCGGAGTCACCTAGTGCAG”, 10600 fluorescence intensity (a.u.).
For the sequence “CCATGGCCGCGGTGAGACCCTCTCGCCTCTGCTCGTTTTGCGGAGTCACCTAGTGCAG”, the binding signal was 8400 fluorescence intensity (a.u.).
With “AGACATTCACTAAAGCTGCATATTAGTGTTTTATTTTCACCGGAGTCACCTAGTGCAG”, the binding signal was 10000 fluorescence intensity (a.u.).
The value for “GTGATTTTGCTCCTGTGATTTTTATCGACTCTTTCCGTTTCGGAGTCACCTAGTGCAG” was 10800 fluorescence intensity (a.u.).
For “TCTTGTTGCTTTTGAACATCTGGTACAGATCTGTTAGTAACGGAGTCACCTAGTGCAG”, the binding signal was 9460 fluorescence intensity (a.u.).
Turning to “GGCCTATAAATACCACCAGTCTGGCACCATCCACAACCCACGGAGTCACCTAGTGCAG”, the binding signal is 10800 fluorescence intensity (a.u.).
As for “TTCCTTCTTCCTTCTTTTTTTCTCTCTTCTCCTTTTTTTTCGGAGTCACCTAGTGCAG”, the figure is 10300 fluorescence intensity (a.u.); as for “CACTTCGTTCCTATTTTTAACACTTTCGTTAATTCTCGATCGGAGTCACCTAGTGCAG”, 8270 fluorescence intensity (a.u.).
With “AGTTTTTTTCATTGTAGTTTATTTTTTATACTTTACTTTTCGGAGTCACCTAGTGCAG”, the binding signal was 10800 fluorescence intensity (a.u.).
Regarding “CTTATGTTGACATGTTCATTCACTAGTTTTAGTTACTAACCGGAGTCACCTAGTGCAG”, the binding signal was 10000 fluorescence intensity (a.u.).
“GGGACACGCACCTCTGTCTAGCACTGGGCACATCTATGCTCGGAGTCACCTAGTGCAG”: the binding signal is 9930 fluorescence intensity (a.u.).
For “GGGTTAGGGAGGGGCCTGGTGGTGGTCGGGGCTCTGACGCCGGAGTCACCTAGTGCAG”, the binding signal was 13100 fluorescence intensity (a.u.).
Consider “GCATCCACCTTTGAGCTCTCCACCGTTGTTTGCATACTCCCGGAGTCACCTAGTGCAG”, for which the binding signal is 13300 fluorescence intensity (a.u.).
In the case of “TTTGTTTTCATACCATGGATGACTGTTGCTGTGCCAAAATCGGAGTCACCTAGTGCAG”, the binding signal was 8460 fluorescence intensity (a.u.).
The value for “CATTTTGTTCATTCGGGTTTGATTGTGTCATAGTTCTATACGGAGTCACCTAGTGCAG” was 16000 fluorescence intensity (a.u.).
As for “ATGATGTGTCGACGTTATCTCTTTAAAATTGATTTGTCATCGGAGTCACCTAGTGCAG”, the figure is 12500 fluorescence intensity (a.u.); as for “TGAATTTTTTTTGACACACGTGGTATGTGTATATGTGTTTCGGAGTCACCTAGTGCAG”, 9400 fluorescence intensity (a.u.); as for “CCTATATTGCAATTTTTGTATTTTTTTCCCTGCAGAAGTACGGAGTCACCTAGTGCAG”, 9250 fluorescence intensity (a.u.).
In the case of “CTCTCTTCTTTCATATTCTCGATATATGTTTATAGCTGGCCGGAGTCACCTAGTGCAG”, the binding signal is 8250 fluorescence intensity (a.u.).
As for “CGTCGCCGTCAGCCGCCCGCCGCACTCGTTTCCAGCGATCCGGAGTCACCTAGTGCAG”, the figure is 11500 fluorescence intensity (a.u.); as for “GTGTGTGCAGCAGAGTTTGCAATCTTACATGGCTTCTAACCGGAGTCACCTAGTGCAG”, 8690 fluorescence intensity (a.u.).
With “CACCGGCCGACTGCCACTCGCCACCACACGACCACCAGCCCGGAGTCACCTAGTGCAG”, the binding signal is 10000 fluorescence intensity (a.u.).
Consider “TCTTTTTCCTATGTATCATTGCTTCATTTTCATATGCAGTCGGAGTCACCTAGTGCAG”, for which the binding signal was 8970 fluorescence intensity (a.u.).
The value for “TTCAACAAGCGGCAGATTCGATTCACATCCATATATATTACGGAGTCACCTAGTGCAG” was 9150 fluorescence intensity (a.u.); that for “CATTCGAAGCTGGTTCTGTTCCTTACTTCTTCCTCTTAGTCGGAGTCACCTAGTGCAG” was 13000 fluorescence intensity (a.u.).
Consider “ACTAAACTCTGCCTTCATCATATTCCCAGCTGGTAACTCTCGGAGTCACCTAGTGCAG”, for which the binding signal is 10300 fluorescence intensity (a.u.).
As for “CGCCCACTCCGCTGACCCTTTTGTTCCTCGAACCCACCCTCGGAGTCACCTAGTGCAG”, the figure is 10300 fluorescence intensity (a.u.).
